For one substance, binding results are on record in paper PMC8429438.

No constants are given. Whether binding was seen depends on the method and setting. In cells and extracts the contact can be indirect. Binding calls can cover weak binding; strength is not graded here.

This experiment has as its target T1, DnaJC7 (endogenous, PS19 mouse brain) (mouse (endogenous in PS19 mouse brain)) (UniProt Q9QYI3).
T1 sequence: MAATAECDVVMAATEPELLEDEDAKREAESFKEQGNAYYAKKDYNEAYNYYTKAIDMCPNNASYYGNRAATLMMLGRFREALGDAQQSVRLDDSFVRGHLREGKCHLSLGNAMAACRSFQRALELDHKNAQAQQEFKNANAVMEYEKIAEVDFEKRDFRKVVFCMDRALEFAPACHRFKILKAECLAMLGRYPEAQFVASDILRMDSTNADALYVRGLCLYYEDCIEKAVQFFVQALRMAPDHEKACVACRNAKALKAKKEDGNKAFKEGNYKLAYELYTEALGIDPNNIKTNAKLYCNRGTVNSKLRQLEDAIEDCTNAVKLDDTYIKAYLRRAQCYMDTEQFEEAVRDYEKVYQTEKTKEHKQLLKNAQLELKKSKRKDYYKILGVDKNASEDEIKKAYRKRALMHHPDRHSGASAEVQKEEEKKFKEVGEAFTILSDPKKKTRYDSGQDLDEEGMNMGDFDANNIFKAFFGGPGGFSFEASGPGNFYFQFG
Nature of the experiment: co-IP; PS19 mouse brain lysate (TBS), anti-DnaJC7 antibody on Protein A Dynabeads, 4 °C overnight; western blot with anti-tau and anti-DnaJC7; rabbit IgG as control.

Consider “human 1N4R P301S tau expressed in PS19 tauopathy mouse brain”, for which the binding entry was “binds”.
